According to PMC4769169 (eLife, 2016):
Results are given in words; binding and its absence hold for the method and conditions named. In cells and extracts the contact can be indirect. A yes stands for co-enrichment or nearness to the bait. Other partners may have been found. For some of these results: No binding means not detected with the bait. For some of these results: Tags and fused reporters may be left off the sequences shown. One block for each molecule: values may come before it.

The chains behind the UniProt entries cited, without tags or fusion partners. Where a name states a change or a piece, a line headed by the entry shows the natural chain unless it says otherwise.
UniProt P61006: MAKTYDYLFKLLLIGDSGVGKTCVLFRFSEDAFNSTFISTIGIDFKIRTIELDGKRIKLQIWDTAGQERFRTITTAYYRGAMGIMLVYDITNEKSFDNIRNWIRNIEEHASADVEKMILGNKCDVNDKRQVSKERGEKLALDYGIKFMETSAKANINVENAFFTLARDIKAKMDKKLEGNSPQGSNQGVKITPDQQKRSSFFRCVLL
UniProt P61026: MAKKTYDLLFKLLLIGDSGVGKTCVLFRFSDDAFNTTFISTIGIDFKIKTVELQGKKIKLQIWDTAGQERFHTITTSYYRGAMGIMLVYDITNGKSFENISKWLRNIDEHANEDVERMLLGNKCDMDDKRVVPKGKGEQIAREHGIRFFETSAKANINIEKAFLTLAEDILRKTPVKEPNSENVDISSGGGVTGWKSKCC
UniProt P32019: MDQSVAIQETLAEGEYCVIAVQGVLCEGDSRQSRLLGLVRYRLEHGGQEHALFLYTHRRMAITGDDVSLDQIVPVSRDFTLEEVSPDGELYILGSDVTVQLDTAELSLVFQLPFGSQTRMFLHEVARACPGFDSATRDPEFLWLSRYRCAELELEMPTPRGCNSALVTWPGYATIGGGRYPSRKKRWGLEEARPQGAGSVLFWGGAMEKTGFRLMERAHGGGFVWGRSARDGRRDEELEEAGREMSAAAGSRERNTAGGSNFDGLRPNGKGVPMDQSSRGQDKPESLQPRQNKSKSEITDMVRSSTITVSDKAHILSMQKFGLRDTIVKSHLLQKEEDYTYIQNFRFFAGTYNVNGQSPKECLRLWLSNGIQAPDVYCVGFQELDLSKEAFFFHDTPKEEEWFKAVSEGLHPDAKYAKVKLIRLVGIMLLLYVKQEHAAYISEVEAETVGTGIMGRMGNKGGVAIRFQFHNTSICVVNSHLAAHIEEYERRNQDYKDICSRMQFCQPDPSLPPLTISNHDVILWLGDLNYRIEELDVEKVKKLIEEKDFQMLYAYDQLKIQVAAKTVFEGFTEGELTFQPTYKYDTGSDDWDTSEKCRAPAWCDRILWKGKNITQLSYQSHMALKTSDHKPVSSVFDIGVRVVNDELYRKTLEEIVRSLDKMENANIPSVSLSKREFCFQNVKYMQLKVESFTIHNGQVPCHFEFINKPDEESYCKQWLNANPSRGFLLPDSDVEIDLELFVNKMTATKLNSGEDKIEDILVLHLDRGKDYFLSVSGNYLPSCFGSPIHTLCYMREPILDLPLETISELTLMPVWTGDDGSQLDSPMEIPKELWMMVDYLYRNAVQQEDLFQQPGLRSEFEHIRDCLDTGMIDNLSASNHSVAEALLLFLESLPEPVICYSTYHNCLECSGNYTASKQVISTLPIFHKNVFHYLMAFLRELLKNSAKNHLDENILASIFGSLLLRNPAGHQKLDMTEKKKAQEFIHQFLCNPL
UniProt Q5S007: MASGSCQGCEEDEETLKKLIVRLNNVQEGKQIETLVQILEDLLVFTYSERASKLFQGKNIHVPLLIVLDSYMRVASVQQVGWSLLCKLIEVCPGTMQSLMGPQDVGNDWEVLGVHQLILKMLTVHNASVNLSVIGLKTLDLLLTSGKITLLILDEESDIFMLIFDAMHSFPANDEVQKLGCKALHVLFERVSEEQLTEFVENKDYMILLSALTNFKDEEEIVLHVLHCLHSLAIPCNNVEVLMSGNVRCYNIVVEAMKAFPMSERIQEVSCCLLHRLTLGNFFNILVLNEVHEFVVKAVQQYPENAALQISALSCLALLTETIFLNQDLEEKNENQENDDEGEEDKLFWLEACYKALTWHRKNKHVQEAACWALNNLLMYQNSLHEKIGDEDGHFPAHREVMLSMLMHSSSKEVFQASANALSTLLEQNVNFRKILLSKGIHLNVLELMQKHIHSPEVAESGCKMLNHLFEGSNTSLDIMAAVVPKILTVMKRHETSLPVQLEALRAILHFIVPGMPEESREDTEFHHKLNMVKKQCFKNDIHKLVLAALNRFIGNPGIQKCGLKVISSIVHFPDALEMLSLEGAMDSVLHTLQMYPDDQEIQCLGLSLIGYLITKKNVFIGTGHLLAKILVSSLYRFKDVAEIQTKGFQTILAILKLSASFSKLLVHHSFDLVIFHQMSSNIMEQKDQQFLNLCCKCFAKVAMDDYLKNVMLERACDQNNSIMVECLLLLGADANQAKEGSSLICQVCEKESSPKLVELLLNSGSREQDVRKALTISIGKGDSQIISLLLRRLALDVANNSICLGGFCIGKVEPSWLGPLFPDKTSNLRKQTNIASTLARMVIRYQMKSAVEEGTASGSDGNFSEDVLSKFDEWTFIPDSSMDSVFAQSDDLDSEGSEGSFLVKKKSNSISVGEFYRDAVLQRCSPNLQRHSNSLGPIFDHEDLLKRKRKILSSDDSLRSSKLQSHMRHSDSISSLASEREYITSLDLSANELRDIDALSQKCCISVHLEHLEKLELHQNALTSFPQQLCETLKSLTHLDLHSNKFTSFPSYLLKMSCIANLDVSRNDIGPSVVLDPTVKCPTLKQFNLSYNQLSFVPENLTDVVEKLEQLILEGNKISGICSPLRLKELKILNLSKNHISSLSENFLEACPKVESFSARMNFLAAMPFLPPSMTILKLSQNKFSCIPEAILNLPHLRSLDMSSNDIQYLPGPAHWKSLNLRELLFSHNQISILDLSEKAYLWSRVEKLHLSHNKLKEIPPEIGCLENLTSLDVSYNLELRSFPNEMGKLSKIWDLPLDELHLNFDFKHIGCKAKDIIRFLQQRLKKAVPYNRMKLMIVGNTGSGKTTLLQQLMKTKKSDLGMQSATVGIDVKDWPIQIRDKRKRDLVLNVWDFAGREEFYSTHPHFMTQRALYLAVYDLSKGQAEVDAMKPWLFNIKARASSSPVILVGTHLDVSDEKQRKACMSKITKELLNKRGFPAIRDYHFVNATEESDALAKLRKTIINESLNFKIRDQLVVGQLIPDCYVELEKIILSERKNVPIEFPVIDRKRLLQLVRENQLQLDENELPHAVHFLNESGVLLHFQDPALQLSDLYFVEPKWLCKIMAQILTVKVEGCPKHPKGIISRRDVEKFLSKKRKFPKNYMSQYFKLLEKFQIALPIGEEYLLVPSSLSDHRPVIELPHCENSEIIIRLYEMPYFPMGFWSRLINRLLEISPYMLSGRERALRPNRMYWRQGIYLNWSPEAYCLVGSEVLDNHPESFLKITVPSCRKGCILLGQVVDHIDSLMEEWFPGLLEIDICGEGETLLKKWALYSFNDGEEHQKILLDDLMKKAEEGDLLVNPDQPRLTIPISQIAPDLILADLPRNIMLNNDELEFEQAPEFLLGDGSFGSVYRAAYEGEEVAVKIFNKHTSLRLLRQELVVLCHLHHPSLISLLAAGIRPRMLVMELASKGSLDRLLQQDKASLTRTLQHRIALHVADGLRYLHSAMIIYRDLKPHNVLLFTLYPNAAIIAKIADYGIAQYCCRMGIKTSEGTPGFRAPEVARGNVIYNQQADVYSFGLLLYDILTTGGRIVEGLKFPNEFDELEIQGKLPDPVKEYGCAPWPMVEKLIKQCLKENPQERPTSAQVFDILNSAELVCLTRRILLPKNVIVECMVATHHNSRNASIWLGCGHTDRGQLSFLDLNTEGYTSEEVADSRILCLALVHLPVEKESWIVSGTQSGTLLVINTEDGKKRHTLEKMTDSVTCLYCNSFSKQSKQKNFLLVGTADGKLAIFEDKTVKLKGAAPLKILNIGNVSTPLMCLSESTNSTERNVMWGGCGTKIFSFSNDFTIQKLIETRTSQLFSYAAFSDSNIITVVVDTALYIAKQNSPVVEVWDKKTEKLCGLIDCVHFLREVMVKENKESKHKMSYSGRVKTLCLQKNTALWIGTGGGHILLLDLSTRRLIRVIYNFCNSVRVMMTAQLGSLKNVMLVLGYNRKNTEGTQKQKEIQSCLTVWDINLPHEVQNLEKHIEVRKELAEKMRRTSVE

Legend:
[1] = biological target: GFP-Rab8a (T72A) (UniProt P61006); assay: affinity purification with mass spectrometry; GFP-Rab8a T72A or T72E transiently expressed in HEK293; lysis in NP-40 extraction buffer; lysates incubated with GFP beads (Chromotek) for 2 hr; on-bead digestion; n=4
[2] = biological target: HA-Rab8a (wild type) (UniProt P61006); assay: affinity purification with mass spectrometry; HEK293 cells expressing flag-LRRK2-G2019S alone or in combination with HA-Rab8a, HA-Rab10 or HA-Rab12; interactors of the Rab quantified by MS (n=4 for Rab8a)
[3] = biological target: T1, HA-Rab12 (wild type) (human) (UniProt Q6IQ22); assay: as above
T1 sequence: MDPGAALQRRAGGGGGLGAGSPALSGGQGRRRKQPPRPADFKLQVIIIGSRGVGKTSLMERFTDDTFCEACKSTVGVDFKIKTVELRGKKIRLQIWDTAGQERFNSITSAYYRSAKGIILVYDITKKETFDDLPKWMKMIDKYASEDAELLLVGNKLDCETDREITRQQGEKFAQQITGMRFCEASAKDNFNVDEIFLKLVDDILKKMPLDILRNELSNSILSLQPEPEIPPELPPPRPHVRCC

[4] = biological target: HA-Rab10 T73A (UniProt P61026); assay: affinity purification with mass spectrometry; Rab10 T73A/T73E (n=3) and Rab12 S106A/S106E (n=4) immunoprecipitated, interactors quantified by MS
[5] = biological target: HA-Rab10 T73E (UniProt P61026); assay: as above
[6] = biological target: T2, HA-Rab12 S106A (human) (UniProt Q6IQ22); assay: as above
T2 sequence: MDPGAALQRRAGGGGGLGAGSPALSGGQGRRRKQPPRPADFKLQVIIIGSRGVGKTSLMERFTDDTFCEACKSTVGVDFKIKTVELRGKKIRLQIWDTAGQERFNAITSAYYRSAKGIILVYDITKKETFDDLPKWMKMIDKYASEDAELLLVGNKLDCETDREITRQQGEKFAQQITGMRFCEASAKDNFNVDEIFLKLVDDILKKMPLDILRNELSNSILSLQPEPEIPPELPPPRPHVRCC

[7] = biological target: T3, HA-Rab12 S106E (human) (UniProt Q6IQ22); assay: as above
T3 sequence: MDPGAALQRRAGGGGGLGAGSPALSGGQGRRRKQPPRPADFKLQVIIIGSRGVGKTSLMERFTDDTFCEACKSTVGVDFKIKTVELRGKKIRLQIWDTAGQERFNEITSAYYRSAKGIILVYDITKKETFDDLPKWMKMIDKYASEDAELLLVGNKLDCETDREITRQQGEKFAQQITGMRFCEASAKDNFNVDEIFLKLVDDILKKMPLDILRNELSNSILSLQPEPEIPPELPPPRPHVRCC

binding [1]: binds
Molecule: INPP5B (from UniProt P32019 1-993)

binding [2]: binds
binding [3]: binds
Molecule: flag-LRRK2-G2019S (from UniProt Q5S007 1-2527) (enzyme)

binding [1]: binds
B1: RabGGTA (protein, UniProt Q92696 1-567)
chain: MHGRLKVKTSEEQAEAKRLEREQKLKLYQSATQAVFQKRQAGELDESVLELTSQILGANPDFATLWNCRREVLQQLETQKSPEELAALVKAELGFLESCLRVNPKSYGTWHHRCWLLGRLPEPNWTRELELCARFLEVDERNFHCWDYRRFVATQAAVPPAEELAFTDSLITRNFSNYSSWHYRSCLLPQLHPQPDSGPQGRLPEDVLLKELELVQNAFFTDPNDQSAWFYHRWLLGRADPQDALRCLHVSRDEACLTVSFSRPLLVGSRMEILLLMVDDSPLIVEWRTPDGRNRPSHVWLCDLPAASLNDQLPQHTFRVIWTAGDVQKECVLLKGRQEGWCRDSTTDEQLFRCELSVEKSTVLQSELESCKELQELEPENKWCLLTIILLMRALDPLLYEKETLQYFQTLKAVDPMRATYLDDLRSKFLLENSVLKMEYAEVRVLHLAHKDLTVLCHLEQLLLVTHLDLSHNRLRTLPPALAALRCLEVLQASDNAIESLDGVTNLPRLQELLLCNNRLQQPAVLQPLASCPRLVLLNLQGNPLCQAVGILEQLAELLPSVSSVLT

binding [1]: binds
binding [4]: binds
binding [5]: no binding
binding [6]: binds
binding [7]: no binding
B2: Rab GDP dissociation inhibitor α (GDI1) (protein, UniProt P31150 1-447)
chain: MDEEYDVIVLGTGLTECILSGIMSVNGKKVLHMDRNPYYGGESSSITPLEELYKRFQLLEGPPESMGRGRDWNVDLIPKFLMANGQLVKMLLYTEVTRYLDFKVVEGSFVYKGGKIYKVPSTETEALASNLMGMFEKRRFRKFLVFVANFDENDPKTFEGVDPQTTSMRDVYRKFDLGQDVIDFTGHALALYRTDDYLDQPCLETVNRIKLYSESLARYGKSPYLYPLYGLGELPQGFARLSAIYGGTYMLNKPVDDIIMENGKVVGVKSEGEVARCKQLICDPSYIPDRVRKAGQVIRIICILSHPIKNTNDANSCQIIIPQNQVNRKSDIYVCMISYAHNVAAQGKYIAIASTTVETTDPEKEVEPALELLEPIDQKFVAISDLYEPIDDGCESQVFCSCSYDATTHFETTCNDIKDIYKRMAGTAFDFENMKRKQNDVFGEAEQ

binding [1]: binds
B3: CHML (protein, UniProt P26374 1-656)
chain: MADNLPTEFDVVIIGTGLPESILAAACSRSGQRVLHIDSRSYYGGNWASFSFSGLLSWLKEYQQNNDIGEESTVVWQDLIHETEEAITLRKKDETIQHTEAFCYASQDMEDNVEEIGALQKNPSLGVSNTFTEVLDSALPEESQLSYFNSDEMPAKHTQKSDTEISLEVTDVEESVEKEKYCGDKTCMHTVSDKDGDKDESKSTVEDKADEPIRNRITYSQIVKEGRRFNIDLVSKLLYSQGLLIDLLIKSDVSRYVEFKNVTRILAFREGKVEQVPCSRADVFNSKELTMVEKRMLMKFLTFCLEYEQHPDEYQAFRQCSFSEYLKTKKLTPNLQHFVLHSIAMTSESSCTTIDGLNATKNFLQCLGRFGNTPFLFPLYGQGEIPQGFCRMCAVFGGIYCLRHKVQCFVVDKESGRCKAIIDHFGQRINAKYFIVEDSYLSEETCSNVQYKQISRAVLITDQSILKTDLDQQTSILIVPPAEPGACAVRVTELCSSTMTCMKDTYLVHLTCSSSKTAREDLESVVKKLFTPYTETEINEEELTKPRLLWALYFNMRDSSGISRSSYNGLPSNVYVCSGPDCGLGNEHAVKQAETLFQEIFPTEEFCPPPPNPEDIIFDGDDKQPEAPGTNNVVMAKLESSEESKNLESPEKHLQN

binding [1]: binds
B4: CHM (protein, UniProt P24386 1-653)
chain: MADTLPSEFDVIVIGTGLPESIIAAACSRSGRRVLHVDSRSYYGGNWASFSFSGLLSWLKEYQENSDIVSDSPVWQDQILENEEAIALSRKDKTIQHVEVFCYASQDLHEDVEEAGALQKNHALVTSANSTEAADSAFLPTEDESLSTMSCEMLTEQTPSSDPENALEVNGAEVTGEKENHCDDKTCVPSTSAEDMSENVPIAEDTTEQPKKNRITYSQIIKEGRRFNIDLVSKLLYSRGLLIDLLIKSNVSRYAEFKNITRILAFREGRVEQVPCSRADVFNSKQLTMVEKRMLMKFLTFCMEYEKYPDEYKGYEEITFYEYLKTQKLTPNLQYIVMHSIAMTSETASSTIDGLKATKNFLHCLGRYGNTPFLFPLYGQGELPQCFCRMCAVFGGIYCLRHSVQCLVVDKESRKCKAIIDQFGQRIISEHFLVEDSYFPENMCSRVQYRQISRAVLITDRSVLKTDSDQQISILTVPAEEPGTFAVRVIELCSSTMTCMKGTYLVHLTCTSSKTAREDLESVVQKLFVPYTEMEIENEQVEKPRILWALYFNMRDSSDISRSCYNDLPSNVYVCSGPDCGLGNDNAVKQAETLFQEICPNEDFCPPPPNPEDIILDGDSLQPEASESSAIPEANSETFKESTNLGNLEESSE

binding [1]: binds
binding [4]: binds
binding [5]: no binding
binding [6]: binds
binding [7]: no binding
B5: Rab GDP dissociation inhibitor β (GDI2) (protein, UniProt P50395 1-445)
chain: MNEEYDVIVLGTGLTECILSGIMSVNGKKVLHMDRNPYYGGESASITPLEDLYKRFKIPGSPPESMGRGRDWNVDLIPKFLMANGQLVKMLLYTEVTRYLDFKVTEGSFVYKGGKIYKVPSTEAEALASSLMGLFEKRRFRKFLVYVANFDEKDPRTFEGIDPKKTTMRDVYKKFDLGQDVIDFTGHALALYRTDDYLDQPCYETINRIKLYSESLARYGKSPYLYPLYGLGELPQGFARLSAIYGGTYMLNKPIEEIIVQNGKVIGVKSEGEIARCKQLICDPSYVKDRVEKVGQVIRVICILSHPIKNTNDANSCQIIIPQNQVNRKSDIYVCMISFAHNVAAQGKYIAIVSTTVETKEPEKEIRPALELLEPIEQKFVSISDLLVPKDLGTESQIFISRTYDATTHFETTCDDIKNIYKRMTGSEFDFEEMKRKKNDIYGED

binding [1]: binds
B6: Rabin8 (Rab3IP), endogenous (protein, UniProt Q96QF0 1-476)
chain: MGLKKMKGLSYDEAFAMANDPLEGFHEVNLASPTSPDLLGVYESGTQEQTTSPSVIYRPHPSALSSVPIQANALDVSELPTQPVYSSPRRLNCAEISSISFHVTDPAPCSTSGVTAGLTKLTTRKDNYNAEREFLQGATITEACDGSDDIFGLSTDSLSRLRSPSVLEVREKGYERLKEELAKAQRELKLKDEECERLSKVRDQLGQELEELTASLFEEAHKMVREANIKQATAEKQLKEAQGKIDVLQAEVAALKTLVLSSSPTSPTQEPLPGGKTPFKKGHTRNKSTSSAMSGSHQDLSVIQPIVKDCKEADLSLYNEFRLWKDEPTMDRTCPFLDKIYQEDIFPCLTFSKSELASAVLEAVENNTLSIEPVGLQPIRFVKASAVECGGPKKCALTGQSKSCKHRIKLGDSSNYYYISPFCRYRITSVCNFFTYIRYIQQGLVKQQDVDQMFWEVMQLRKEMSLAKLGYFKEEL

binding [1]: binds
B7: TBC1D15 (protein, UniProt Q8TC07 1-691)
chain: MAAAGVVSGKIIYEQEGVYIHSSCGKTNDQDGLISGILRVLEKDAEVIVDWRPLDDALDSSSILYARKDSSSVVEWTQAPKERGHRGSEHLNSYEAEWDMVNTVSFKRKPHTNGDAPSHRNGKSKWSFLFSLTDLKSIKQNKEGMGWSYLVFCLKDDVVLPALHFHQGDSKLLIESLEKYVVLCESPQDKRTLLVNCQNKSLSQSFENLLDEPAYGLIQAGLLDRRKLLWAIHHWKKIKKDPYTATMIGFSKVTNYIFDSLRGSDPSTHQRPPSEMADFLSDAIPGLKINQQEEPGFEVITRIDLGERPVVQRREPVSLEEWTKNIDSEGRILNVDNMKQMIFRGGLSHALRKQAWKFLLGYFPWDSTKEERTQLQKQKTDEYFRMKLQWKSISQEQEKRNSRLRDYRSLIEKDVNRTDRTNKFYEGQDNPGLILLHDILMTYCMYDFDLGYVQGMSDLLSPLLYVMENEVDAFWCFASYMDQMHQNFEEQMQGMKTQLIQLSTLLRLLDSGFCSYLESQDSGYLYFCFRWLLIRFKREFSFLDILRLWEVMWTELPCTNFHLLLCCAILESEKQQIMEKHYGFNEILKHINELSMKIDVEDILCKAEAISLQMVKCKELPQAVCEILGLQGSEVTTPDSDVGEDENVVMTPCPTSAFQSNALPTLSASGARNDSPTQIPVSSDVCRLTPA

binding [1]: binds
B8: RabGGTB (protein, UniProt P53611 1-331)
chain: MGTPQKDVIIKSDAPDTLLLEKHADYIASYGSKKDDYEYCMSEYLRMSGIYWGLTVMDLMGQLHRMNREEILAFIKSCQHECGGISASIGHDPHLLYTLSAVQILTLYDSINVIDVNKVVEYVKGLQKEDGSFAGDIWGEIDTRFSFCAVATLALLGKLDAINVEKAIEFVLSCMNFDGGFGCRPGSESHAGQIYCCTGFLAITSQLHQVNSDLLGWWLCERQLPSGGLNGRPEKLPDVCYSWWVLASLKIIGRLHWIDREKLRNFILACQDEETGGFADRPGDMVDPFHTLFGIAGLSLLGEEQIKPVNPVFCMPEEVLQRVNVQPELVS
